Experimental data as given in article PMC7819943, “Rice protein-binding microarrays: a tool to detect cis-acting elements near promoter regions in rice”.
The list shows a part of the results.

Chains of the proteins cited; added tags and fusions are not shown.
UniProt Q0JBA9, entry or part of it: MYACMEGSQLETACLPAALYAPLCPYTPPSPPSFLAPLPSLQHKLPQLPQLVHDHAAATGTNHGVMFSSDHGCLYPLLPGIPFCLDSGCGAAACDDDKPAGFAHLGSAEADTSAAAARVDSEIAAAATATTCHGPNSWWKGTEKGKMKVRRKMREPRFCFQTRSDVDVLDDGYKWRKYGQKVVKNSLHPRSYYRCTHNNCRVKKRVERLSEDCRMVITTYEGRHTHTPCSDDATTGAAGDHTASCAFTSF

The sequences below were run against OsWRKY34 (Oryza sativa, UniProt Q0JBA9 1-250) (assay: protein-binding microarray (RPBM); PBS, 2% BSA, 51.3 ng/ul salmon testes DNA, 50 uM zinc acetate, 200 nM TF, 25 C, 1 h; high values mean tight binding). Details: protein: recombinant; tags: N-terminal polyhistidine and DsRed monomer fusion (pET32a); label: CyDye5-dUTP incorporated in the synthesized complementary strand; 3' TTTTT single-stranded linker to array surface; dsDNA, one strand shown.
Summary of the method: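 Ni–NTA purification followed expression in E. coli BL21-CodonPlus of transcription factors fused N-terminally to a polyhistidine tag and DsRed. At 200 nM in PBS with 2% BSA, salmon testes DNA and 50 µM zinc acetate, the protein was incubated for 1 h at 25 °C with a custom Agilent array that had been primer-extended with Cy5-dUTP and blocked with 2% BSA. After washing, the array was read on an Axon 4000B scanner. The binding signal is per-feature fluorescence intensity in arbitrary units.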
With “AACATTACTACCTCCATCCTAAAATACATTTTTTTATCCACGGAGTCACCTAGTGCAG” the binding signal was 8500 fluorescence intensity (a.u.).
In the case of “AAAGAAAATCATCTCGTTTCTATCTATCATTGTCACTTTTCGGAGTCACCTAGTGCAG”, the binding signal was 11000 fluorescence intensity (a.u.).
In the case of “AACCTTTTCTTTCTTTCTTCACTTTGGTTGCGTTGCGTCTCGGAGTCACCTAGTGCAG”, the binding signal was 24200 fluorescence intensity (a.u.).
With “TTGATTTCTTCTGTTTGGTCCAAAACCGTGTGTTGCTCTTCGGAGTCACCTAGTGCAG” the binding signal was 10900 fluorescence intensity (a.u.).
For “AAACTTCCAACTTTTCCGTCATATTGTTCCAATTTTCTTCCGGAGTCACCTAGTGCAG”, the binding signal was 13200 fluorescence intensity (a.u.).
In the case of “GATGTGGTTTATCCTCCTTACTCTTGAACCTATGAACACTCGGAGTCACCTAGTGCAG”, the binding signal was 9480 fluorescence intensity (a.u.).
“TTTTATAATATGTTATTGTAGCAGTTTTTGTGAGCTATTACGGAGTCACCTAGTGCAG” was tested, and the binding signal was 8100 fluorescence intensity (a.u.).
In the case of “TGCACTACCAACCTTTTCTGCATCTTGCTTATATTTTTGCCGGAGTCACCTAGTGCAG”, the binding signal was 9420 fluorescence intensity (a.u.).
With “CCACCTGCTCTTGGTCCCACTCATGGCCCCACACTACTATCGGAGTCACCTAGTGCAG” the binding signal was 8950 fluorescence intensity (a.u.).
“CCCAACCCAACCGCCGCCACCACTCACCGGCGCAACCACCCGGAGTCACCTAGTGCAG” was tested, and the binding signal was 8780 fluorescence intensity (a.u.).
“GGTGAGGTGGTGGTGGTGGTGGTCGGGAAGTGGCGGCGCCCGGAGTCACCTAGTGCAG” was tested, and the binding signal was 16100 fluorescence intensity (a.u.).
For “CAACTTTTCTACATTGCAATCAATTAATTTAGCTCTACAACGGAGTCACCTAGTGCAG”, the binding signal was 9460 fluorescence intensity (a.u.).
In the case of “CACAAAGGCGCACGGGAGGGAGGGAGGGACGAAAAGAGATCGGAGTCACCTAGTGCAG”, the binding signal was 9590 fluorescence intensity (a.u.).
For “TAAGGGATTTTGACATTTTACTTGTACTGTTTGACCATTCCGGAGTCACCTAGTGCAG”, the binding signal was 10400 fluorescence intensity (a.u.).
With “CGACAAAATTCAACCGTAATTTCAACGTTTTCCTAACTTTCGGAGTCACCTAGTGCAG” the binding signal was 8990 fluorescence intensity (a.u.).
For “CTCACCCACAGCGTCTTCGTTACCACTGCGCATCCACCACCGGAGTCACCTAGTGCAG”, the binding signal was 8730 fluorescence intensity (a.u.).
With “ATCCAACACACGCAGATCACAAGTTGCAACTTTGCGGGCCCGGAGTCACCTAGTGCAG” the binding signal was 8160 fluorescence intensity (a.u.).
For “CGATGTGTTGTGTGCTGCTGCAAATTATCATATTGTTCATCGGAGTCACCTAGTGCAG”, the binding signal was 8260 fluorescence intensity (a.u.).
In the case of “GCTGGGTTTGTGGGTTTTCTCATAAGTTTAATCTCTATATCGGAGTCACCTAGTGCAG”, the binding signal was 17400 fluorescence intensity (a.u.).
For “GTAATTAGGGAAGGGATATTATATTTGTTTTGGTGGAAGTCGGAGTCACCTAGTGCAG”, the binding signal was 8420 fluorescence intensity (a.u.).
“CCGTTTCTACTCACCCAAGCCGCCACCGCACTTCGCACCCCGGAGTCACCTAGTGCAG” was tested, and the binding signal was 8630 fluorescence intensity (a.u.).
For “ATACATGCATATATCTAACTATCCATTTTTGTTTTCAGCCCGGAGTCACCTAGTGCAG”, the binding signal was 8590 fluorescence intensity (a.u.).
For “ATTCGTTTCGTATTTATGCCCGATATTATCCGTGCTTCTACGGAGTCACCTAGTGCAG”, the binding signal was 9200 fluorescence intensity (a.u.).
“GGCCTTCATGGAGCTCCTCCCTTTCTTTGCGGGGAGTTTACGGAGTCACCTAGTGCAG” was tested, and the binding signal was 8580 fluorescence intensity (a.u.).
In the case of “TGTTTGTTATTCCACGCTTCGTTTTTTTTTTTTTGAATTACGGAGTCACCTAGTGCAG”, the binding signal was 9500 fluorescence intensity (a.u.).
“CAAATAGACACTTATAACATGCGCACTTTTATCCCTACAACGGAGTCACCTAGTGCAG” was tested, and the binding signal was 8130 fluorescence intensity (a.u.).
In the case of “CAAAACTGTGGTATGGGCCGGGGTGGGGCGGCGCGGGCCACGGAGTCACCTAGTGCAG”, the binding signal was 13800 fluorescence intensity (a.u.).
“ACCATTGATTTTTCAGTACGTGTTTGACCATTCGTCTTATCGGAGTCACCTAGTGCAG” was tested, and the binding signal was 13300 fluorescence intensity (a.u.).
For “TTTAGTAAGAAGGTTTTTCTCTGTTTCTCTTTCTCTCTCTCGGAGTCACCTAGTGCAG”, the binding signal was 11200 fluorescence intensity (a.u.).
“ACGGTTTGGATGGTGATTTGAGCTAATGTGGCGTTGACATCGGAGTCACCTAGTGCAG” was tested, and the binding signal was 10200 fluorescence intensity (a.u.).
With “ACGTCCATCCGTTTCTTGCATGCCACCTAAATGATTATGACGGAGTCACCTAGTGCAG” the binding signal was 12900 fluorescence intensity (a.u.).
For “GAGTCGACCGTTGCTGTGGGCCCCACCCCTCACCGCCGGACGGAGTCACCTAGTGCAG”, the binding signal was 10400 fluorescence intensity (a.u.).
“GATCCGATTGCACTATTAAATTTGTTGCAATTAAATCTTCCGGAGTCACCTAGTGCAG” was tested, and the binding signal was 8560 fluorescence intensity (a.u.).
“GTTTTCTCTTATATATCTGCGCGTGAGTTGTGTGCTGAATCGGAGTCACCTAGTGCAG” was tested, and the binding signal was 10700 fluorescence intensity (a.u.).
For “GCCACCCTCGCCGTGCATCCCCAATCCCTACAGTGAAGGCCGGAGTCACCTAGTGCAG”, the binding signal was 8280 fluorescence intensity (a.u.).
With “GGAAACCTGCTCCCATCTACTCCACGGCCTCACTCACTGCCGGAGTCACCTAGTGCAG” the binding signal was 8710 fluorescence intensity (a.u.).
In the case of “GGGGAGACATCTCAAACTCAGAGTGACATTTGGGGTGGTTCGGAGTCACCTAGTGCAG”, the binding signal was 9220 fluorescence intensity (a.u.).
For “CGCGTACGGGTATCCAACCAGCGTCCTCTGCATCGATCTCCGGAGTCACCTAGTGCAG”, the binding signal was 9540 fluorescence intensity (a.u.).
With “TTCTCTCTGATGGTTGCATCACTTGCACTGCTCTGAGTTTCGGAGTCACCTAGTGCAG” the binding signal was 8800 fluorescence intensity (a.u.).
In the case of “CGGTGGTGTTGTCCCCGTGTCCTACTTCTTGTCCCAATGACGGAGTCACCTAGTGCAG”, the binding signal was 10000 fluorescence intensity (a.u.).
For “TGACTTTCTTTACGACCTCTCTCTCACATCTCACCTCGTGCGGAGTCACCTAGTGCAG”, the binding signal was 8290 fluorescence intensity (a.u.).
“CGTTTTTTAAGAGGCAATGTTGTTGACTTTTGGATACATGCGGAGTCACCTAGTGCAG” was tested, and the binding signal was 8300 fluorescence intensity (a.u.).
